Earlier results in patent publication US20210401846A1, “MEDICAMENT, COMPOUND, COMPOSITION AND METHOD FOR TREATING HERPES” (priority 2020, published 2021).
The name of at least one read-out is uncertain.

Conditions: capsule formulation of famciclovir administered with food

Nc1nc2c(ncn2CCC(CO)CO)c(=O)[nH]1 [penciclovir]
effect on extent of availability (AUC): no effect
